From patent publication US6969583B2, “Method for detecting variant HBV” (Melbourne Health, priority 2000, dated 2005)
For at least one compound, name, drawing or mass did not settle the structure.

Experiments:
Format in all cases: cell-based, Hepatitis B virus
[1] = test system: Precore/M550I recombinant HBV-baculovirus; assay: Antiviral testing, Precore/M550I recombinant HBV-baculovirus in HepG2 cells (Example 17); settings: NDR = no dose response
Procedure: (§1) HepG2 cells were seeded at approximately 20-40% confluency and then were grown for 16-24 hours before infection. On the day of infection, triplicate plates of cells were trypsinized, and viable cell number was determined with a hemocytometer using Trypan blue exclusion. Average cell counts were calculated and used to determine the volume of high-titer viral stock necessary to infect cells at the indicated moi. HepG2 cells were washed one time with serum-free MEM to remove traces of serum. Baculovirus was diluted into MEM without serum to achieve the appropriate moi using volumes of 1.0, 0.5, and 0.25 ml to infect 100-mm, 60 mm, and 35-mm dishes, respectively. Baculovirus was adsorbed to HepG2 cells for one hour at 37° C. with gentle rocking every 15 minutes to ensure that the inoculum was evenly distributed. The inoculum was then aspirated and HepG2 cells were washed two times with phosphate-buffered saline and refed MEM-FBS with or without various concentrations of agents.
(§2) HBV core particles were isolated from the cytoplasmic fraction of HepG2 cells lysed in 0.5% w/v NP-40. […]
(§3) Conditioned medium was collected from HepG2 cells and subjected to centrifugation at 6,000 g for five minutes to remove cellular debris. […] DNA was then analyzed by electrophoresis and Southern blotting. […]

M550I HBV baculovirus = assay: Antiviral testing with M550I HBV baculovirus in HepG2 cells (Example 15); settings: FIG. 9A, 9B; result in words
Procedure: as §1
(§4) HBV core particles were isolated from the cytoplasmic fraction of HepG2 cells lysed in 0.5% w/v NP-40. Cytoplasmic extracts were adjusted to 10 mmol/l McC12 and unprotected DNA was removed by an incubation to […] for 1.5 hours at 37° C. Following sequential phenol and chloroform extractions, nucleic acids were recovered by ethanol precipitation. […]

[2] = test system: Precore/L526M/M550V recombinant HBV-baculovirus; assay: Antiviral testing, Precore/L526M/M550V recombinant HBV-baculovirus in HepG2 cells (Example 17); settings: NDR = no dose response
Procedure: as §1, §2, §3

[3] = test system: L526M/M550V HBV baculovirus; assay: Antiviral testing with L526M/M550V HBV baculovirus in HepG2 cells (Example 15); settings: FIG. 8A-8C; result in words
Procedure: as §1, §4

[4] = test system: M550I recombinant HBV-baculovirus; assay: Antiviral testing, M550I recombinant HBV-baculovirus in HepG2 cells (Example 17); settings: intracellular single-stranded HBV DNA, NDR = no dose response
Procedure: as §1, §2, §3

[5] = test system: precore (G1896A) recombinant HBV-baculovirus; assay: Antiviral testing of the precore mutant (G1896A) HBV baculovirus in HepG2 cells (Example 17); settings: result in words
Procedure: as §1, §2, §3

L526M HBV baculovirus = assay: Antiviral testing with L526M HBV baculovirus in HepG2 cells (Example 15); settings: FIG. 7A-7C; result in words
Procedure: as §1, §4

[6] = test system: any HBV/baculovirus variant encoding the mutations at M550I or L526M/M550V; assay: Southern blots of HBV DNA from HepG2 cells transduced with lamivudine-resistant recombinant HBV-baculovirus variants (Example 17); settings: intracellular and extracellular HBV DNA, no dose response could be plotted
Procedure: as §1, §2, §3

[7] = test system: L526M/M550V recombinant HBV-baculovirus; assay: Antiviral testing, L526M/M550V recombinant HBV-baculovirus in HepG2 cells (Example 17); settings: intracellular single-stranded HBV DNA, NDR = no dose response
Procedure: as §1, §2, §3

[8] = extracellular relaxed circular HBV DNA
[9] = intracellular single-stranded HBV DNA

Nc1ccn([C@@H]2CS[C@H](CO)O2)c(=O)n1 [Lamivudine, (−)-b-L-2′,3′-dideoxy-3′-thiacytidine]
IC50 (μM), EC RC [1, 8]: NDR | IC50 (μM), IC SS [1, 9]: NDR | sensitivity of M550I compared with wild-type (M550I HBV baculovirus): completely resistant | IC50 (μM), EC RC [2, 8]: NDR | IC50 (μM), IC SS [2, 9]: NDR | change in sensitivity of L526M/M550V [3]: completely resistant | IC50 (μM), IC SS [4]: NDR | sensitivity of G1896A HBV compared with wild type HBV [5]: may be more sensitive | change in sensitivity of L526M compared to wild-type (L526M HBV baculovirus): pronounced resistance | resistance conferred by M550I or L526M/M550V changes [6]: high degree of resistance | IC50 (μM), IC SS [7]: NDR
